The target in assay [1] is T1, RapGEF1 (human (endogenous in primary CD4+ T cells)) (UniProt Q13905).
T1 sequence: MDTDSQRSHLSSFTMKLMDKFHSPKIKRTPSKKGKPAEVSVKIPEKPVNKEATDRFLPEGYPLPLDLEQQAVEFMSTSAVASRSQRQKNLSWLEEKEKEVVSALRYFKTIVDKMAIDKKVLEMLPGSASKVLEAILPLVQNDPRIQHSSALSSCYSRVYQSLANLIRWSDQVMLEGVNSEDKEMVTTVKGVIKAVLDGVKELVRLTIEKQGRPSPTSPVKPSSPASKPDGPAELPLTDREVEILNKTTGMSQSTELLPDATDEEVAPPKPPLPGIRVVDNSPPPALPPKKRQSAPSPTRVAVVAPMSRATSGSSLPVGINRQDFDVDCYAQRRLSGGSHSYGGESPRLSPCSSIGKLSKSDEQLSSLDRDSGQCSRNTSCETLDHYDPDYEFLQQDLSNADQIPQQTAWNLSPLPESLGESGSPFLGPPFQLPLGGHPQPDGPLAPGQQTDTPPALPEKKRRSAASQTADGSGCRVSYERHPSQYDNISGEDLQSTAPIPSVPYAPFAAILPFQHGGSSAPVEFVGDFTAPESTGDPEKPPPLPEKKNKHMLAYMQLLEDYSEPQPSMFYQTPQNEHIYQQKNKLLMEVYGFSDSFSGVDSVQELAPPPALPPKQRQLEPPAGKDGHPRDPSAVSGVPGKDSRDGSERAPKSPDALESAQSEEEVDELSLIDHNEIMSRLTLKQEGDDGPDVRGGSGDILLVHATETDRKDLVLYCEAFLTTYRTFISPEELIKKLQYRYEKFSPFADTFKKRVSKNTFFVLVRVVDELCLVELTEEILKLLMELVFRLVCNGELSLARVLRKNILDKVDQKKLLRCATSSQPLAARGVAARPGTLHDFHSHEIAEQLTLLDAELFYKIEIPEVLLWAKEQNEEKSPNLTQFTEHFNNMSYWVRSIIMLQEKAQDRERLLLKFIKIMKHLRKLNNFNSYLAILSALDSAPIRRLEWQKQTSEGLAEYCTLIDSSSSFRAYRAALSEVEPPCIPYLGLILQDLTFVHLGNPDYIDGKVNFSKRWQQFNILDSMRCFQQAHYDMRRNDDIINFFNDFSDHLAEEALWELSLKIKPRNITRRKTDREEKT
Briefly: co-IP; anti-RapGEF1 antibody (or isotype control) on Protein G Dynabeads; lysate of primary human resting CD4+ T cells in Triton lysis buffer (10mM HEPES, 2mM MgCl2, 10mM KCl, 0.5mM EDTA, 150mM NaCl, 0.5% Triton), 4h at 4°C; cells stimulated with 50ng/ml PMA if indicated; western blot.

The chains behind the UniProt entries cited, without tags or fusion partners.
UniProt P46109: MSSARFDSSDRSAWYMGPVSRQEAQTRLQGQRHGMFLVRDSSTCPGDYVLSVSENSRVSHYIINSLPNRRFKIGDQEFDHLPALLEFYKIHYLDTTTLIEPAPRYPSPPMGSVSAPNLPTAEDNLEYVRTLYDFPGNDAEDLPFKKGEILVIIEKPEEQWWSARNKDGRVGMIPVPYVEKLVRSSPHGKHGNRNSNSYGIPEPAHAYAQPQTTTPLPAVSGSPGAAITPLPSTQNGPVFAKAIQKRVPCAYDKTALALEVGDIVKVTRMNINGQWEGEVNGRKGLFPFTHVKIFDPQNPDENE
UniProt P62993: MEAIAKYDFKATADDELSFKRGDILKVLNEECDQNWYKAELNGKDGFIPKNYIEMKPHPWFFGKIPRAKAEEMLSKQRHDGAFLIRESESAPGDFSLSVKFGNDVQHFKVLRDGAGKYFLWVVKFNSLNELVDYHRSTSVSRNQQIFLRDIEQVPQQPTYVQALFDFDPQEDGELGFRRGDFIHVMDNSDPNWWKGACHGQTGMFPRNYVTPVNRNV

Assay [2] deals with T2, dynamin2 (human (endogenous in primary CD4+ T cells)) (UniProt P50570).
T2 sequence: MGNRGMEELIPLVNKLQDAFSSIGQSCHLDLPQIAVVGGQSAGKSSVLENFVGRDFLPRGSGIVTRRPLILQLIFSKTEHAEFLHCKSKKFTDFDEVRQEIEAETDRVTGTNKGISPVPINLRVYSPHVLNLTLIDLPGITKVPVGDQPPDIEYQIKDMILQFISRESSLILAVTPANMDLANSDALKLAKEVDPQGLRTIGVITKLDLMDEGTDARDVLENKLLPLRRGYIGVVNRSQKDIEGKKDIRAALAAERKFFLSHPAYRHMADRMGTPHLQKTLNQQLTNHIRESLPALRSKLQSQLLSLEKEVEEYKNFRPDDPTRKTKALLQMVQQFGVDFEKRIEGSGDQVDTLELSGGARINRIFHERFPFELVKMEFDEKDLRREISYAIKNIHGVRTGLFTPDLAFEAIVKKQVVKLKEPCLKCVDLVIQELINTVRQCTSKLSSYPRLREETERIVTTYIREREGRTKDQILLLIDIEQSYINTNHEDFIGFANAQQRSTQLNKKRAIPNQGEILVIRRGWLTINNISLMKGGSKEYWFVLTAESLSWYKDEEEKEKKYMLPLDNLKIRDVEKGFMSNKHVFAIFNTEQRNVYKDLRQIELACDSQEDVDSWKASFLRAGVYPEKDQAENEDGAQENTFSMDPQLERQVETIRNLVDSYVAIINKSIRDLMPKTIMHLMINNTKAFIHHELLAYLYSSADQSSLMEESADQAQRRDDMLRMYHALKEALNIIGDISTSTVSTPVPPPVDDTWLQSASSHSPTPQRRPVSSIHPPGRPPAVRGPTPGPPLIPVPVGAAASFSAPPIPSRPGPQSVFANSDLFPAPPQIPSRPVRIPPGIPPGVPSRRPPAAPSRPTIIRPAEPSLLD
The experiment in a line: co-IP; anti-dynamin2 antibody (or isotype control) on Protein G Dynabeads; lysate of primary human resting CD4+ T cells in Triton lysis buffer (10mM HEPES, 2mM MgCl2, 10mM KCl, 0.5mM EDTA, 150mM NaCl, 0.5% Triton), 4h at 4°C; cells stimulated with 50ng/ml PMA if indicated; western blot. For orientation: A western blot detects proteins with antibodies after separation by electrophoresis.

Results are given in words; binding and its absence hold for the method and conditions named. Binding seen in cells or lysates may run through a third protein. Some results given as binding are weak or reduced against the parent protein; the word gives no strength.

CRK-L (from UniProt P46109 1-303): the binding entry in assay [1] is “binds”.

On to Grb2 (from UniProt P62993 1-217), for which the binding result in assay [1] is “binds”.

B1: vav1 (protein, UniProt P15498 1-845)
chain: MELWRQCTHWLIQCRVLPPSHRVTWDGAQVCELAQALRDGVLLCQLLNNLLPHAINLREVNLRPQMSQFLCLKNIRTFLSTCCEKFGLKRSELFEAFDLFDVQDFGKVIYTLSALSWTPIAQNRGIMPFPTEEESVGDEDIYSGLSDQIDDTVEEDEDLYDCVENEEAEGDEIYEDLMRSEPVSMPPKMTEYDKRCCCLREIQQTEEKYTDTLGSIQQHFLKPLQRFLKPQDIEIIFINIEDLLRVHTHFLKEMKEALGTPGAANLYQVFIKYKERFLVYGRYCSQVESASKHLDRVAAAREDVQMKLEECSQRANNGRFTLRDLLMVPMQRVLKYHLLLQELVKHTQEAMEKENLRLALDAMRDLAQCVNEVKRDNETLRQITNFQLSIENLDQSLAHYGRPKIDGELKITSVERRSKMDRYAFLLDKALLICKRRGDSYDLKDFVNLHSFQVRDDSSGDRDNKKWSHMFLLIEDQGAQGYELFFKTRELKKKWMEQFEMAISNIYPENATANGHDFQMFSFEETTSCKACQMLLRGTFYQGYRCHRCRASAHKECLGRVPPCGRHGQDFPGTMKKDKLHRRAQDKKRNELGLPKMEVFQEYYGLPPPPGAIGPFLRLNPGDIVELTKAEAEQNWWEGRNTSTNEIGWFPCNRVKPYVHGPPQDLSVHLWYAGPMERAGAESILANRSDGTFLVRQRVKDAAEFAISIKYNVEVKHIKIMTAEGLYRITEKKAFRGLTELVEFYQQNSLKDCFKSLDTTLQFPFKEPEKRTISRPAVGSTKYFGTAKARYDFCARDRSELSLKEGDIIKILNKKGQQGWWRGEIYGRVGWFPANYVEEDYSEYC
As for B1, in assay [2], the binding entry is given as “binds”.

The record behind these values is paper PMC5342215.
